Assay results published in the supplement of paper PMC6078165.
Values are relative to the signal before dosing, not to a vehicle control; the signal also falls without drug.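 Fibroblast labels denote human fibroblasts, mainly primary ones from uterus (C12385, HUF), lung (H6013), bone (Hs27A), adrenal (HADF) and skin (WS1), plus mammary HMF and breast cancer-associated Hs343T. Cancer cells are basal-like or mesenchymal-like triple-negative breast cancer lines. A hit is a response shift exceeding 3x replicate standard deviation. The tissue of the other fibroblasts is not given here.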

Test system: Hs578T
Assay: relative JC-1 red fluorescence (viability) vs pre-drug, coculture with fibroblast (fraction); higher = more viable cancer cells
Conditions: 10 µM
Experimental: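 JC-1 labelled TNBC cells cocultured 1:1 (1,500 cells each) with CellTrace Violet stained primary or stromal fibroblasts in 384-well plates in FluoroBrite medium, treated with one of 42 anticancer drugs at 0.1, 1, 10 or 100 uM. JC-1 red fluorescence (mitochondrial integrity in cancer cells only) was read by plate reader every 8 h for 72 h. Values are normalised to each well's pre-drug value. The stock of one drug was tenfold lower, so its dose labels may be too high.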

O=C(O)C1(C(=O)O)CCC1.[NH2-].[NH2-].[Pt+2] [Carboplatin]
Conditions | relative JC-1 red fluorescence
8 h | 0.919
16 h | 0.8173
24 h | 0.7471
32 h | 0.7109
40 h | 0.644
48 h | 0.601
56 h | 0.575
64 h | 0.534
72 h | 0.52

relative JC-1 red fluorescence
Conditions | 8 h | 16 h | 24 h | 32 h | 40 h | 48 h | 56 h | 64 h | 72 h
coculture fibroblast: C12385 | 0.831 | 0.723 | 0.672 | 0.589 | 0.526 | 0.498 | 0.468 | 0.45 | 0.44
coculture fibroblast: H6013 | 0.891 | 0.834 | 0.792 | 0.777 | 0.756 | 0.743 | 0.724 | 0.728 | 0.696
coculture fibroblast: H6019 | 0.78959 | 0.694 | 0.677 | 0.585 | 0.546 | 0.515 | 0.482 | 0.457 | 0.433
coculture fibroblast: H6076 | 0.885 | 0.833 | 0.824 | 0.83 | 0.817 | 0.836 | 0.832 | 0.857 | 0.859
coculture fibroblast: H6231 | 0.918 | 0.815 | 0.737 | 0.6807 | 0.6083 | 0.578 | 0.521 | 0.488 | 0.463
coculture fibroblast: HADF | 0.903 | 0.802 | 0.73 | 0.67 | 0.621 | 0.5883 | 0.5534 | 0.538 | 0.502
coculture fibroblast: HCFa | 0.885 | 0.786 | 0.734 | 0.69 | 0.623 | 0.605 | 0.563 | 0.551 | 0.509
coculture fibroblast: HCPF | 0.9372 | 0.8469 | 0.791 | 0.753 | 0.692 | 0.672 | 0.645 | 0.604 | 0.578
coculture fibroblast: HHSteC | 0.88 | 0.773 | 0.71 | 0.655 | 0.592 | 0.565 | 0.533 | 0.511 | 0.474
coculture fibroblast: HMF | 0.908 | 0.818 | 0.744 | 0.7144 | 0.654 | 0.624 | 0.576 | 0.555 | 0.531
coculture fibroblast: HPFa | 0.897 | 0.8048 | 0.72949 | 0.6603 | 0.6093 | 0.571 | 0.528 | 0.495 | 0.451
coculture fibroblast: HUF | 0.885 | 0.791 | 0.751 | 0.644 | 0.581 | 0.544 | 0.501 | 0.477 | 0.465
coculture fibroblast: Hs27A | 0.8617 | 0.7985 | 0.731 | 0.677 | 0.615 | 0.594 | 0.557 | 0.547 | 0.495
coculture fibroblast: Hs343T | 0.94 | 0.843 | 0.766 | 0.724 | 0.662 | 0.6214 | 0.5686 | 0.536 | 0.518
coculture fibroblast: WS1 | 0.831 | 0.732 | 0.684 | 0.583 | 0.523 | 0.497 | 0.46 | 0.44 | 0.422
